Five molecules from doi:10.1101/2025.05.02.651838 can be followed below.

Chains of the proteins cited; added tags and fusions are not shown.
UniProt Q6P3S6: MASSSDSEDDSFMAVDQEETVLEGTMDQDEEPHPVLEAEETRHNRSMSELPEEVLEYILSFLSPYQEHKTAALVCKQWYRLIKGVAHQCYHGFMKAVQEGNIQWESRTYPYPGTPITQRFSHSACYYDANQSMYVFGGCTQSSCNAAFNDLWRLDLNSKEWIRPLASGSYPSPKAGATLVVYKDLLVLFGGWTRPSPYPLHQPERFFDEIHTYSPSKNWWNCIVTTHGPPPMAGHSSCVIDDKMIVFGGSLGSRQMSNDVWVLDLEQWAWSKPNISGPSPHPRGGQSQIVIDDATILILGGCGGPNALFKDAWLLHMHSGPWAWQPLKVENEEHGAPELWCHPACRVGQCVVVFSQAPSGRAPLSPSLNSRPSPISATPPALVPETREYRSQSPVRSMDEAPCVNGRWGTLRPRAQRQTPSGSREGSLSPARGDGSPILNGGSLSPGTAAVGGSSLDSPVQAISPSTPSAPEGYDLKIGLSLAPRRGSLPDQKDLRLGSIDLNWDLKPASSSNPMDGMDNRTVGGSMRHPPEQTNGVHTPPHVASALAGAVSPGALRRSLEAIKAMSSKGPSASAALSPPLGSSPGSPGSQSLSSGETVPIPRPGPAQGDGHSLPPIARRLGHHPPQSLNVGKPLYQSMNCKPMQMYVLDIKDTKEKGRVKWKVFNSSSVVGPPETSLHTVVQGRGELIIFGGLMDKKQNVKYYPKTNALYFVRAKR

Assay [1] has as its target FBXO42 (bait of the IP-MS experiment) (UniProt Q6P3S6). As to the kind of experiment: affinity purification with mass spectrometry.
The next assay deals with T1, Flag PP4C (UniProt P60510).
T1 sequence: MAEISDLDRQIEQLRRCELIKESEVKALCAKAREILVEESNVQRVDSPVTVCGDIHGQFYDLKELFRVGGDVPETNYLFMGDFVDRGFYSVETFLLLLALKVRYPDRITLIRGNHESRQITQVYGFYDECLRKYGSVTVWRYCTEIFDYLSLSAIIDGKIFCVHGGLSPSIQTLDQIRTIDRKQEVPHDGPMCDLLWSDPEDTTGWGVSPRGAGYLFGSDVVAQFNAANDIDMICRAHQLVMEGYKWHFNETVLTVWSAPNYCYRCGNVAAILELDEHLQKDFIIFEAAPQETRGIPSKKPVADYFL
As to the kind of experiment: affinity purification with mass spectrometry.

These are yes or no findings as the source states them, for the method shown. Binding seen in cells or lysates may run through a third protein. A yes stands for co-enrichment or nearness to the bait. Other partners may have been found. For some of these results: Sequences can lack the tags named with a protein.

B1: PP4R3A (SMEK1) (protein, UniProt Q6IN85 1-833)
chain: MTDTRRRVKVYTLNEDRQWDDRGTGHVSSGYVERLKGMSLLVRAESDGSLLLESKINPNTAYQKQQDTLIVWSEAENYDLALSFQEKAGCDEIWEKICQVQGKDPSVDITQDLVDESEEERFDDMSSPGLELPSCELSRLEEIAELVASSLPSPLRREKLALALENEGYIKKLLELFHVCEDLENIEGLHHLYEIIKGIFLLNRTALFEVMFSEECIMDVIGCLEYDPALSQPRKHREFLTKTAKFKEVIPISDPELKQKIHQTYRVQYIQDMVLPTPSVFEENMLSTLHSFIFFNKVEIVGMLQEDEKFLTDLFAQLTDEATDEEKRQELVNFLKEFCAFSQTLQPQNRDAFFKTLSNMGILPALEVILGMDDTQVRSAATDIFSYLVEYNPSMVREFVMQEAQQNDDVSKKLTEQKITSKDILLINLIIEHMICDTDPELGGAVQLMGLLRTLVDPENMLATANKTEKTEFLGFFYKHCMHVLTAPLLANTTEDKPSKDDFQTAQLLALVLELLTFCVEHHTYHIKNYIINKDILRRVLVLMASKHAFLALCALRFKRKIIGLKDEFYNRYIMKSFLFEPVVKAFLNNGSRYNLMNSAIIEMFEFIRVEDIKSLTAHVIENYWKALEDVDYVQTFKGLKLRFEQQRERQDNPKLDSMRSILRNHRYRRDARTLEDEEEMWFNTDEDDMEDGEAVVSPSDKTKNDDDIMDPISKFMERKKLKESEEKEVLLKTNLSGRQSPSFKLSLSSGTKTNLTSQSSTTNLPGSPGSPGSPGSPGSPGSVPKNTSQTAAITTKGGLVGLVDYPDDDEDDDEDEDKEDTLPLSKKAKFDS
As for B1, the binding result in assay [1] is listed as “binds”.

B2: PP4C (the catalytic subunit of protein phosphatase 4) (protein, UniProt P60510 1-307)
chain: MAEISDLDRQIEQLRRCELIKESEVKALCAKAREILVEESNVQRVDSPVTVCGDIHGQFYDLKELFRVGGDVPETNYLFMGDFVDRGFYSVETFLLLLALKVRYPDRITLIRGNHESRQITQVYGFYDECLRKYGSVTVWRYCTEIFDYLSLSAIIDGKIFCVHGGLSPSIQTLDQIRTIDRKQEVPHDGPMCDLLWSDPEDTTGWGVSPRGAGYLFGSDVVAQFNAANDIDMICRAHQLVMEGYKWHFNETVLTVWSAPNYCYRCGNVAAILELDEHLQKDFIIFEAAPQETRGIPSKKPVADYFL
B2: in assay [1], the binding entry was “binds”.

B3: CCDC6 (protein, UniProt Q16204 1-474)
chain: MADSASESDTDGAGGNSSSSAAMQSSCSSTSGGGGGGGGGGGGGKSGGIVISPFRLEELTNRLASLQQENKVLKIELETYKLKCKALQEENRDLRKASVTIQARAEQEEEFISNTLFKKIQALQKEKETLAVNYEKEEEFLTNELSRKLMQLQHEKAELEQHLEQEQEFQVNKLMKKIKKLENDTISKQLTLEQLRREKIDLENTLEQEQEALVNRLWKRMDKLEAEKRILQEKLDQPVSAPPSPRDISMEIDSPENMMRHIRFLKNEVERLKKQLRAAQLQHSEKMAQYLEEERHMREENLRLQRKLQREMERREALCRQLSESESSLEMDDERYFNEMSAQGLRPRTVSSPIPYTPSPSSSRPISPGLSYASHTVGFTPPTSLTRAGMSYYNSPGLHVQHMGTSHGITRPSPRRSNSPDKFKRPTPPPSPNTQTPVQPPPPPPPPPMQPTVPSAATSQPTPSQHSAHPSSQP
As for B3, in assay [1], the binding result is recorded as “binds”.

B4: PP4R2 (protein, UniProt Q9NY27 1-417)
chain: MDVERLQEALKDFEKRGKKEVCPVLDQFLCHVAKTGETMIQWSQFKGYFIFKLEKVMDDFRTSAPEPRGPPNPNVEYIPFDEMKERILKIVTGFNGIPFTIQRLCELLTDPRRNYTGTDKFLRGVEKNVMVVSCVYPSSEKNNSNSLNRMNGVMFPGNSPSYTERSNINGPGTPRPLNRPKVSLSAPMTTNGLPESTDSKEANLQQNEEKNHSDSSTSESEVSSVSPLKNKHPDEDAVEAEGHEVKRLRFDKEGEVRETASQTTSSEISSVMVGETEASSSSQDKDKDSRCTRQHCTEEDEEEDEEEEEESFMTSREMIPERKNQEKESDDALTVNEETSEENNQMEESDVSQAEKDLLHSEGSENEGPVSSSSSDCRETEELVGSNSSKTGEILSESSMENDDEATEVTDEPMEQD
Regarding B4, the binding entry (in assay [1]; with Flag PP4C) was “binds” each time.

B5: PP4R1 (protein, UniProt Q8TF05 1-950)
chain: MADLSLLQEDLQEDADGFGVDDYSSESDVIIIPSALDFVSQDEMLTPLGRLDKYAASENIFNRQMVARSLLDTLREVCDDERDCIAVLERISRLADDSEPTVRAELMEQVPHIALFCQENRPSIPYAFSKFLLPIVVRYLADQNNQVRKTSQAALLALLEQELIERFDVETKVCPVLIELTAPDSNDDVKTEAVAIMCKMAPMVGKDITERLILPRFCEMCCDCRMFHVRKVCAANFGDICSVVGQQATEEMLLPRFFQLCSDNVWGVRKACAECFMAVSCATCQEIRRTKLSALFINLISDPSRWVRQAAFQSLGPFISTFANPSSSGQYFKEESKSSEEMSVENKNRTRDQEAPEDVQVRPEDTPSDLSVSNSSVILENTMEDHAAEASGKPLGEISVPLDSSLLCTLSSESHQEAASNENDKKPGNYKSMLRPEVGTTSQDSALLDQELYNSFHFWRTPLPEIDLDIELEQNSGGKPSPEGPEEESEGPVPSSPNITMATRKELEEMIENLEPHIDDPDVKAQVEVLSAALRASSLDAHEETISIEKRSDLQDELDINELPNCKINQEDSVPLISDAVENMDSTLHYIHSDSDLSNNSSFSPDEERRTKVQDVVPQALLDQYLSMTDPSRAQTVDTEIAKHCAYSLPGVALTLGRQNWHCLRETYETLASDMQWKVRRTLAFSIHELAVILGDQLTAADLVPIFNGFLKDLDEVRIGVLKHLHDFLKLLHIDKRREYLYQLQEFLVTDNSRNWRFRAELAEQLILLLELYSPRDVYDYLRPIALNLCADKVSSVRWISYKLVSEMVKKLHAATPPTFGVDLINELVENFGRCPKWSGRQAFVFVCQTVIEDDCLPMDQFAVHLMPHLLTLANDRVPNVRVLLAKTLRQTLLEKDYFLASASCHQEAVEQTIMALQMDRDSDVKYFASIHPASTKISEDAMSTASSTY
Regarding B5, the binding result (in assay [1]; with Flag PP4C) was “binds” each time.
